Measurements from PubChem BioAssay AID485349 (National Center for Advancing Translational Sciences (NCATS), 2010).
Hit rate of the full screen: of about 320,000 compounds, about 620 (0.19%) were called active. Calls follow the shape of the dose curve; as a rule, active = well fitted activation curve with a large enough effect; inconclusive = small, poorly fitted or top-dose-only effect; inactive = no such curve, though single readings can be large or run the other way. This is a selection; strong and weak results do not stand in their true shares. The source gives no active or inactive call for entries shown without one.

Test: qHTS Assay for Identifying a Potential Treatment of Ataxia-Telangiectasia; also: nearly all actives have a fitted effect of over 45% in size; as to activation: % of control where 0% means no effect
Details: […] A-T fibroblasts, KAP-1 phosphorylation AlphaLISA, neocarzinostatin DNA damage 30 min before lysis; activation: at 57.5 µM (top of the series)
Excerpt: NIH Chemical Genomics Center [NCGC] NIH Molecular Libraries Probe Centers Network [MLPCN] MLPCN Grant: MH089030-01 Assay Submitter (PI): Wei Zheng and Yosef Shiloh Ataxia-telangiectasia (A-T) is a devastating and progressive disease for which, there is no cure. Although A-T is a multisystem disease, it is stereotyped characterized by its neurological symptoms such as truncal ataxia, due to cerebellar cortical degeneration of the Purkinje and granule cells. Other symptoms of A-T are telangiectasias (dilated blood vessels), primary immunodeficiency, marked sensitivity to ionizing radiation (IR), chromosomal instability and predisposition to cancer. The underlying genetic cause of A-T is null mutations in the ATM (A-T mutated) gene. ATM is a nuclear serine/threonine kinase that functions as a master regulator of the cellular responses to double strand breaks (DSBs) in the DNA. Upon activation by DSBs, ATM phosphorylates a plethora of down stream targets, including KAP-1 on […]. KAP-1 phosphorylation occurs shortly in response to DSBs and mediates global chromatin relaxation, which facilitates DSB repair. To screen for small molecules that will compensate for the loss of ATM in cells derived from A-T patients, we monitored KAP-1 phosphorylation as a readout for ATM-like activity using an AlphaLISA assay.
qHTS Assay Protocol: Step,Parameter,Value,Description 1. Cell Plating, 3 ul, 500 cells/well in OPTI-MEM, 1% FBS, 1% Pen/Strep 2. Incubation, 16-24 hr, 37C, 5% CO2, 95% humidity 3. Library compounds, 23 nl, 76.7 - 0.61uM dilution series final concentration 4. Incubation, 60 min, 37C, 5% CO2, 95% humidity 5. Reagent, 1 ul, 1600 ng/ml NCS in PBS + 0.05% BSA + 0.005% Tween 20 6. Incubation, 30 min, 37C, 5% CO2, 95% humidity 7. Reagent, 1 ul, Premixed detection reagents and lysis buffer 8. Reagent, 1 ul, 0.6% Antifoam A 9. Incubation, 6 hr, 25C, 95% humidity 10. Readout, EnVision, EnVision plate reader. AlphaScreen 1536-well protocol Cells were plated using medium-binding white solid-bottom tissue culture treated Kalypsys plates. Multidrop dispense of 3 uL of […] (hTERT immortalized A-T patient fibroblast cells). Detection reagent and lysis buffer was 3.75nM Rab-a-pKAP1 antibody bound to 75 ng/ul AlphaScreen SA donor bead, 3.75 nM Biot-M-a-KAP1 antibody bound to AlphaLISA protein A acceptor bead, 0.5x protease inhibitor cocktail and 0.25x PerkinElmer lysis buffer. EnVision protocol for 1536-well AlphaScreen read (30ms excitation, 100ms read), about 10 min/plate.
Potency is read from the fitted curve at half-maximal effect.

| SMILES | activation | Potency |
| --- | --- | --- |
| CCOC(=O)N1C(=O)[C@](c2ccc(Cl)cc2)(C(C)C)N1C(=O)OCC | inactive: 26.3% | – |
| COC(=O)c1cccc2c1-c1ccccc1/C2=N\NC(N)=O | 73.3% | – |
| COc1ccc(CCNC(=O)C2CCN(S(=O)(=O)c3ccc(OC)c(OC)c3)CC2)cc1OC | 66.7% | – |
| O=C(Nc1ccc([N+](=O)[O-])cc1)c1cc2ccccc2nc1Cl | -27.3% | – |
| O=C(c1nn2c(C(F)(F)F)cc(-c3ccc(F)cc3)nc2c1Cl)N1CCOCC1 | 2.8% | – |
| COc1cccc(CN(C)CC(=O)NCc2ccc(F)cc2)c1OC | 106% | – |
| CCOC(=O)c1cnc2c(C)c(Cl)ccc2c1NCCCN1CCOCC1 | inactive: -36.3% | – |
| O=C(O)c1cc(-c2ccco2)nc2ccc(Br)cc12 | inactive: -5.8% | – |
| Cc1nc(Nc2ccc(Cl)cc2)c2oc3ccccc3c2n1 | 88.2% | – |
| C[C@@H](NC(=O)OC(C)(C)C)C(=O)NCC1CCC(C(=O)N[C@@H](Cc2ccccc2)C(=O)O)CC1 (some centres not stated) | inactive: 8.48% | – |
| CC(C)NC(=O)c1ccc(COc2ccc(C(C)(C)C)cc2)o1 | 56.8% | – |
| Cc1ccccc1OCC(=O)Nc1cccc(C(=O)O)c1 | 149% | – |
| O=C(c1ccc(F)cc1)c1ccc(N2CCCCC2)cc1 | 60.9% | – |
| Cc1cc(/C=C(/C#N)C(=O)O)c(C)n1CCC(C)C | inactive: -2.35% | – |
| Cc1cc(C(=O)N2CCN(S(C)(=O)=O)CC2)sc1-c1ccccc1 | inactive: 4.51% | – |
| O=C(c1ccccc1)c1coc2ccc(O)c(Cl)c12 | inactive: -9.83% | – |
| O=c1c(-c2ccc(Cl)cc2)c[nH]n1-c1ccccc1 | 60% | – |
| COc1ccc(NC(=O)C2CC2)cc1OC1CCCC1 | 69.1% | – |
| COc1ccc(Cl)cc1NC(=O)CN(C)C(=O)c1sccc1-c1ccccc1 | inactive: -8.21% | – |
| Cc1ccc(C(=O)NCCc2c[nH]c3ccccc23)c(C)c1 | – | active: 25.1 µM |
| COc1cccc(C2C(C(N)=O)=C(C)Nc3nc(CCCO)nn32)c1 (configuration not stated) | 143% | – |
| CNC(=O)c1ccc(-c2cc3onc(-c4ccccc4)c3c(=O)n2C)cc1 | 0.653% | – |
| C[C@@H]1Cc2c(O)c(O)cc(O)c2C(=O)O1 | -59.5% | – |
| CC(C)(C)NC(=O)c1cccc2c1-c1ccccc1C2=O | 68.6% | – |
| CNC(=O)Cc1csc2ccc(C)cc12 | 64% | – |
| O=C(NC1CCS(=O)(=O)C1)/C(=C/c1ccco1)NC(=O)c1ccccc1 (configuration not stated) | inactive: 8.41% | – |

| SMILES | activation | Potency |
| --- | --- | --- |
| CCOC(=O)Cn1c(-c2ccccc2)cc(SC)c(C#N)c1=O | 80% | – |
| CC(Oc1ccccc1)C(=O)Nc1cccc(NC(=O)c2ccco2)c1 (configuration not stated) | 82.8% | – |
| COc1ccc(Nc2cc3n(c(=O)n2)CCc2cc(OC)c(OC)cc2-3)cc1 | 70.7% | – |
| CCOc1ccc(NC2=CC(=O)CCC2)cc1 | 54.5% | – |
| CCCc1cc(C(=O)Nc2ccccc2SC)no1 | – | active: 39.8 µM |
| O=C(Nc1ccc(F)cc1)N(CCCN1CCOCC1)Cc1cc2cc3c(cc2[nH]c1=O)OCCO3 | – | active: 14.1 µM |
| O=C(c1cccc(F)c1)N1CCCC(C(=O)N2CCCCCC2)C1 (configuration not stated) | 81.4% | – |
| CCOc1ccc(C(=O)NC(=S)Nc2cccnc2)cc1[N+](=O)[O-] | 105% | – |
| CN(C)C(=O)CCc1ccc2c3c([nH]c2c1)[C@]1(CCC2CCCC2)[C@@H](C(=O)N2CCOCC2)C[C@H](CC(=O)NCC24CC5CC(CC(C5)C2)C4)C(=O)N1CC3 | inactive: -43.6% | – |
| COc1ccccc1NC(=O)C1CCCN(S(=O)(=O)c2ccc(-n3cnnn3)cc2)C1 (configuration not stated) | 263% | – |
| O=C(CSc1ccccn1)N/N=C/C=C/c1ccccc1 | 19.3% | – |
| OC(COC(c1ccc(F)cc1)c1ccc(F)cc1)CN1CCCC1 (configuration not stated) | 70.6% | – |
| COc1ccc(N2CCN(C(=O)c3cc4cc(Cl)ccc4[nH]3)CC2)cc1 | 98.5% | – |
| OC(CN1CCCCC1)Cn1c2ccc(Cl)cc2c2cc(Cl)ccc21 (configuration not stated) | 62.9% | – |
| CCOC(=O)c1c(CSc2ccsc2)n(C)c2cc(Br)c(O)c(CN(C)C)c12 | – | active: 8.91 µM |
| CS(=O)(=O)c1ccc(-c2csc(-c3cccnc3)n2)cc1 | 52.6% | – |
| COc1ccccc1C1CCN(C(=O)c2ccc(Cl)cc2)CC1 | 120% | – |
| O=C(NCc1nc2ccccc2[nH]1)C1=C[C@H](c2ccccc2)C[C@H](OCCCCO)O1 | – | active: 39.8 µM |
| Fc1cccc(Cl)c1/C=C/c1cnc2ccccc2n1 | 57.9% | – |
| CC1(C)CC2(CCO1)OC(=O)CC2C(=O)Nc1c(Cl)cccc1Cl (configuration not stated) | 66.7% | – |
| CCn1c2c(c3cc(OCC(C)C)ccc31)CCCC2=O | – | active: 31.6 µM |
| Fc1ccc(C2N(c3ccccc3)C(=S)N3CCCN23)cc1 (configuration not stated) | 77% | – |
| COc1ccc(N=Nc2ccc(O)c3ncccc23)cc1 | inactive: -81.8% | – |
| CCc1nnc2n1N=C(c1cccc([N+](=O)[O-])c1)CS2 | 84.2% | – |
| CC(=O)Nc1ccc(NC2=CC(=O)c3ccccc3C2=O)cc1 | 97.1% | – |
| COc1ccc(N(C)S(=O)(=O)c2cccc(C(=O)OCC(=O)NCc3ccccc3OC)c2)cc1 | 81.8% | – |

Three of the compounds above, as labelled records:
CCOC(=O)c1c(CSc2ccsc2)n(C)c2cc(Br)c(O)c(CN(C)C)c12
  Potency: active: 8.91 µM
CS(=O)(=O)c1ccc(-c2csc(-c3cccnc3)n2)cc1
  activation: 52.6%
COc1ccccc1C1CCN(C(=O)c2ccc(Cl)cc2)CC1
  activation: 120%
